These are yes or no findings as the source states them, for the method shown. In cells and extracts the contact can be indirect. Some entries that bind do so weakly or less than the wild type. For part of these data: Tags and fused reporters may be left off the sequences shown. Blank lines part the entries; values can stand above or below the molecule they belong to.
Legend:
Assay in all cases: co-IP
[1] = biological target: T1, JAKMIP1 N-terminus-mCherry fusion protein (expressed in SH-SY5Y cells) (UniProt Q96N16)
T1 sequence: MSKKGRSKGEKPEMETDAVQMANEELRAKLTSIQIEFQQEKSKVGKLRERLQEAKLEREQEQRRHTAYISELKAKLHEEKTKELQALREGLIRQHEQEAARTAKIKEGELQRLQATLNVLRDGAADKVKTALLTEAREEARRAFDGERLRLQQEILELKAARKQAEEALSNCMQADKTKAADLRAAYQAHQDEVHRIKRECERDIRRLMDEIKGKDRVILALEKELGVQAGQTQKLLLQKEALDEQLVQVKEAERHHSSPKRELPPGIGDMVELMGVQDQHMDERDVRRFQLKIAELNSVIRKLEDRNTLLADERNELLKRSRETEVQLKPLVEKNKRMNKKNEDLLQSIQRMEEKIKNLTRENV

Chains of the proteins cited; added tags and fusions are not shown.
UniProt P40763: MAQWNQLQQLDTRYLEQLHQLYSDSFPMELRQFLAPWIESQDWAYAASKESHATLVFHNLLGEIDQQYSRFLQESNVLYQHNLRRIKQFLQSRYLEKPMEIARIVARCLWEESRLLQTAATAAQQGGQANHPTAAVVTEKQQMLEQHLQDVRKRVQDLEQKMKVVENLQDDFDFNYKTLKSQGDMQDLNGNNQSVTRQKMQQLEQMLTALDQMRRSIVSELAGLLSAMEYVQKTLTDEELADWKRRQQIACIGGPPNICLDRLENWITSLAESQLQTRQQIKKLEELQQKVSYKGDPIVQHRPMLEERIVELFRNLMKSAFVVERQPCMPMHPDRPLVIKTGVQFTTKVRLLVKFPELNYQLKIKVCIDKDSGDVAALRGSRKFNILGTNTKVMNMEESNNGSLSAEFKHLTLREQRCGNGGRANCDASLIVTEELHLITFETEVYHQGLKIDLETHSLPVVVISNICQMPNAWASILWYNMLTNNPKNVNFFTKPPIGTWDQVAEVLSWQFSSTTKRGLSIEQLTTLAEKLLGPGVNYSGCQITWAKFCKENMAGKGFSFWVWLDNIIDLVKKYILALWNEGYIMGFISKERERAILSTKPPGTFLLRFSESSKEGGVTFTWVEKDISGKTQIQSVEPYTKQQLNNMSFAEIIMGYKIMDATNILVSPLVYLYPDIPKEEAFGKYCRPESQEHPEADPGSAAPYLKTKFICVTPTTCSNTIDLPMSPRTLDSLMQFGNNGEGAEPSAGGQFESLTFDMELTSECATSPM
UniProt P17844: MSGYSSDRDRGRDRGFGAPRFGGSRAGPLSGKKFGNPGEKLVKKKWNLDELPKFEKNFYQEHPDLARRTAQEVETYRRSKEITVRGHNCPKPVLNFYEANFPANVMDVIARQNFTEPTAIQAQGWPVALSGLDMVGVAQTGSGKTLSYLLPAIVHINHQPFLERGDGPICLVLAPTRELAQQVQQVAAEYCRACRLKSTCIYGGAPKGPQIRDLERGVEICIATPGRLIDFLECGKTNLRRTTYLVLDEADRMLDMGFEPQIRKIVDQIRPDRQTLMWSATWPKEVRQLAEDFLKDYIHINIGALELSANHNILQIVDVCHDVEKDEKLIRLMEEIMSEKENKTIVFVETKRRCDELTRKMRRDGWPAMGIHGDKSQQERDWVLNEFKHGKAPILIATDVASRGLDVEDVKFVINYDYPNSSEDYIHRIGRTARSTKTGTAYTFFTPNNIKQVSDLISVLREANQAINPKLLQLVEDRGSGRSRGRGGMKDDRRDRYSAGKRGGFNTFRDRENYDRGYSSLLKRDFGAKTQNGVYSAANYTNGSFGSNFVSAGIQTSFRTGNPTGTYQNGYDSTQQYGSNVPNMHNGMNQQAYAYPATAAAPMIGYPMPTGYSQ
UniProt Q8TEQ6: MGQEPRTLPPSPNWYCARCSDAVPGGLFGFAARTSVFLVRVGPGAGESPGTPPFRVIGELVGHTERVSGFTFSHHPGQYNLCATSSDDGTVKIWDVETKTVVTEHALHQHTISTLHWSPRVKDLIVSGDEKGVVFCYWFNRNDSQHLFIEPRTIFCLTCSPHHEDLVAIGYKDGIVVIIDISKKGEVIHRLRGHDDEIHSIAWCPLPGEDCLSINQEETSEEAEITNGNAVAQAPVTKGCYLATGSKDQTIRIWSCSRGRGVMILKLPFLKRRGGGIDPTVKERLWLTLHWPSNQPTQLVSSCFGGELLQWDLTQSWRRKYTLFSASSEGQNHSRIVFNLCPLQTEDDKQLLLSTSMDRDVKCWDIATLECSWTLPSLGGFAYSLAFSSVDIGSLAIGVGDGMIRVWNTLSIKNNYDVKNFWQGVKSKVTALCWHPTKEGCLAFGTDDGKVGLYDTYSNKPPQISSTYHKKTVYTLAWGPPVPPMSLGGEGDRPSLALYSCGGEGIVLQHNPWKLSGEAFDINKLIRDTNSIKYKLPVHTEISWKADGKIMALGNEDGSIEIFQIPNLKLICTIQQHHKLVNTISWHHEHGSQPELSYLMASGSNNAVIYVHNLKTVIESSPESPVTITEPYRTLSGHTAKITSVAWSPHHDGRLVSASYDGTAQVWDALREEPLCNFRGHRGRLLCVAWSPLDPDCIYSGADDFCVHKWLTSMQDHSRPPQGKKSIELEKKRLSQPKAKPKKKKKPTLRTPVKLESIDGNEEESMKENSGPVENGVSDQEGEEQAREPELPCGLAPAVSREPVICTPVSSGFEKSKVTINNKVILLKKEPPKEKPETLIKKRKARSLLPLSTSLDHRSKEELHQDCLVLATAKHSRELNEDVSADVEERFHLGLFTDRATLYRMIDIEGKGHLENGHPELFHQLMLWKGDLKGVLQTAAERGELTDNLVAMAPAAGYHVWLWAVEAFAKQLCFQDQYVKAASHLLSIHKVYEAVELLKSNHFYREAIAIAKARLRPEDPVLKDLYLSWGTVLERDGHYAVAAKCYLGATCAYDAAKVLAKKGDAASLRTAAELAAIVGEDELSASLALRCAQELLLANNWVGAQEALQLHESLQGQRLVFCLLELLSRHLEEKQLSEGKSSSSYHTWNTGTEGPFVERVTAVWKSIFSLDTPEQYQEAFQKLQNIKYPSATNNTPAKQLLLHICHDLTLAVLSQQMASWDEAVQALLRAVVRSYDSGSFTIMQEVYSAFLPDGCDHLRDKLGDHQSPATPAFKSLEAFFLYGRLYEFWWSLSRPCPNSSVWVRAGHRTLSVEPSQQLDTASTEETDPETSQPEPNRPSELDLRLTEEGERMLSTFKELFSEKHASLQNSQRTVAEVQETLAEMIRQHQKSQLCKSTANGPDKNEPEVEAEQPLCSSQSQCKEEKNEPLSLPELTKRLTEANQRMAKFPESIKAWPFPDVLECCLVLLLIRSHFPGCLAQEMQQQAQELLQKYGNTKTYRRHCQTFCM
UniProt Q7L576: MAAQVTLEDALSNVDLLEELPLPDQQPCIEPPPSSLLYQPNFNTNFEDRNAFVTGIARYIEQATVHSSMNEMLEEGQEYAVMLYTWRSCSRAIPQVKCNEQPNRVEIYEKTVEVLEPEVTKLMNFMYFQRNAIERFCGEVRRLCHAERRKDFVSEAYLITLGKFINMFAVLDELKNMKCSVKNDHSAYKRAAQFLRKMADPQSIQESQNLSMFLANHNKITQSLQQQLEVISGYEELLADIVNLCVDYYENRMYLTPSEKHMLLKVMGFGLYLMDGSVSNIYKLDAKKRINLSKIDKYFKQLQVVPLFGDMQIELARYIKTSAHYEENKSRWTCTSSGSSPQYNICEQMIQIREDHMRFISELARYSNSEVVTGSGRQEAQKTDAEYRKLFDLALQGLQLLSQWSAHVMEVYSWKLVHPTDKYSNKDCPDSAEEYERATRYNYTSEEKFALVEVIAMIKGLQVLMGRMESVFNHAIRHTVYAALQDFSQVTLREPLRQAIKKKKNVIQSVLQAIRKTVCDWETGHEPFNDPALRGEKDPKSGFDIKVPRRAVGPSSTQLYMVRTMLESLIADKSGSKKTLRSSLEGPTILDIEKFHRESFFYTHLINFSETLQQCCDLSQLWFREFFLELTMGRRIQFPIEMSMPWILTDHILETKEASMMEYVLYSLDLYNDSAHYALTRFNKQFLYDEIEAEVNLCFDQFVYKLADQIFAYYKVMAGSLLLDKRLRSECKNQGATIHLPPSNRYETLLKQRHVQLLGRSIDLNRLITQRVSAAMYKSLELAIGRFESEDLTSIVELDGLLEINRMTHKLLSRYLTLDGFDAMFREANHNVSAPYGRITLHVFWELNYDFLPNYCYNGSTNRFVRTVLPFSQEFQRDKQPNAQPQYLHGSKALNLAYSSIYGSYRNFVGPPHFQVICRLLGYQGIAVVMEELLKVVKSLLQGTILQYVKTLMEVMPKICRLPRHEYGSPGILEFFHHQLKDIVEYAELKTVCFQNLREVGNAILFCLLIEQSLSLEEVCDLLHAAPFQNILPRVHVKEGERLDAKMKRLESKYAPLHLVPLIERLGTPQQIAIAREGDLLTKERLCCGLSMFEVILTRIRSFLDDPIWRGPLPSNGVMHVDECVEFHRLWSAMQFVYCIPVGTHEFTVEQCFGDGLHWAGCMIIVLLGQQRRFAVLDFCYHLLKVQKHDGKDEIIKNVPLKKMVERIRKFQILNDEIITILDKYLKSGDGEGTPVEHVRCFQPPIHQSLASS
UniProt P04406: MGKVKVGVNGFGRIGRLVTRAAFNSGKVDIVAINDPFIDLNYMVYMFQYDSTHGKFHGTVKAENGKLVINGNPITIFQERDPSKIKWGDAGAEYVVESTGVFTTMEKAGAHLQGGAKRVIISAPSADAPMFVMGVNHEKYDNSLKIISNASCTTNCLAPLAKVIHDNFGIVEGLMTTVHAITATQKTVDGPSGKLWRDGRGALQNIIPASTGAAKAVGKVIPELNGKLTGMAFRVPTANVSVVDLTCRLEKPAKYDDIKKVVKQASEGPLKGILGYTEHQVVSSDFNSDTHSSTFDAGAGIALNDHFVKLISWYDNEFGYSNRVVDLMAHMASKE
UniProt Q9UBN7: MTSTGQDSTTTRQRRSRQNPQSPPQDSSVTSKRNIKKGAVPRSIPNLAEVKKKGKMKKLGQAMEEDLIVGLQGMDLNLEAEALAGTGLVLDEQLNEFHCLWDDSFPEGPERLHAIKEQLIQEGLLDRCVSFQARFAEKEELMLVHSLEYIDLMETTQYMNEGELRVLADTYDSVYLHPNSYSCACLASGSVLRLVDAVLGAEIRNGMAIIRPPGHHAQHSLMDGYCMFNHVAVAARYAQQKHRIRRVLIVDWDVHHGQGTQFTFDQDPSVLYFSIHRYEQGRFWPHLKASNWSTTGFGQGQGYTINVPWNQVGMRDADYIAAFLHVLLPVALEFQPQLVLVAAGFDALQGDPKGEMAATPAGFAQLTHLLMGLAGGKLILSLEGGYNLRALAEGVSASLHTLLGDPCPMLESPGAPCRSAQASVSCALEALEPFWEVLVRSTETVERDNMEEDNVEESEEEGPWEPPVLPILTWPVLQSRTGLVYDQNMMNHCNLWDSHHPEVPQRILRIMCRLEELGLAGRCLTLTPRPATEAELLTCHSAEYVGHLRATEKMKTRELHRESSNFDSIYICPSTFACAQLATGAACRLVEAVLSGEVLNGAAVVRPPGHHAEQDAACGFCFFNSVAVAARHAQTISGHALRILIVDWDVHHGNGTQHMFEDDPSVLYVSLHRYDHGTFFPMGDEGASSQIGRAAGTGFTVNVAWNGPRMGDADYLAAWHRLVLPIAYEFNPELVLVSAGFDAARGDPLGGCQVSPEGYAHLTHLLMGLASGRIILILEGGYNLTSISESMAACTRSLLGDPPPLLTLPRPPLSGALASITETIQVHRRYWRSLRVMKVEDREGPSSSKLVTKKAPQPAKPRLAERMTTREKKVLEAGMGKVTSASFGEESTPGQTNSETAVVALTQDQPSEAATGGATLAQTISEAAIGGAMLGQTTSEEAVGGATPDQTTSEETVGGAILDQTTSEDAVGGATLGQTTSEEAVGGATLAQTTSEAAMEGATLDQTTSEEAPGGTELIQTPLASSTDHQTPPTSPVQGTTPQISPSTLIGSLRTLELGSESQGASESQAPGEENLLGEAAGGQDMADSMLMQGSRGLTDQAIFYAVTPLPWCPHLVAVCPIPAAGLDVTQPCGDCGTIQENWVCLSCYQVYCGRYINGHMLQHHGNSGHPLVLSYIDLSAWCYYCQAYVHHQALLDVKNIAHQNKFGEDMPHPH

[2] = biological target: T2, JAKMIP1 C-terminus-mCherry fusion protein (expressed in SH-SY5Y cells) (UniProt Q96N16)
T2 sequence: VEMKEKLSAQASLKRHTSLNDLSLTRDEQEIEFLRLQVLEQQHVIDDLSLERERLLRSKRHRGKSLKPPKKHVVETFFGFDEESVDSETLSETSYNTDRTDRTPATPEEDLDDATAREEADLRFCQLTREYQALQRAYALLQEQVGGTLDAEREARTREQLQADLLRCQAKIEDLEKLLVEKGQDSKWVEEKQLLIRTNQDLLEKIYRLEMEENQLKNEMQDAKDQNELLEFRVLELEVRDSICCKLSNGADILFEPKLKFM

[3] = biological target: full-length JAKMIP1-mCherry fusion protein (expressed in SH-SY5Y cells) (UniProt Q96N16)
[4] = biological target: T3, JAKMIP1 C-terminus-mCherry fusion protein (expressed in HEK-293 cells) (UniProt Q96N16)
T3 sequence: T2 sequence

[5] = biological target: full-length JAKMIP1-mCherry fusion protein (expressed in HEK-293 cells) (UniProt Q96N16)
[6] = biological target: T4, JAKMIP1 N-terminus-mCherry fusion protein (expressed in HEK-293 cells) (UniProt Q96N16)
T4 sequence: T1 sequence

Molecule: Signal Transducer and Activator of Transcription 3 (from UniProt P40763 1-770)
binding [1]: no binding
binding [2]: no binding
binding [3]: no binding

Molecule: DDX5 (from UniProt P17844 1-614)
binding [1]: no binding
binding [2]: binds
binding [3]: binds

Molecule: GEMIN5 (from UniProt Q8TEQ6 1-1508)
binding [1]: no binding
binding [2]: binds
binding [3]: binds

B2: DBN1 (protein, UniProt Q16643 1-649)
chain: MAGVSFSGHRLELLAAYEEVIREESAADWALYTYEDGSDDLKLAASGEGGLQELSGHFENQKVMYGFCSVKDSQAALPKYVLINWVGEDVPDARKCACASHVAKVAEFFQGVDVIVNASSVEDIDAGAIGQRLSNGLARLSSPVLHRLRLREDENAEPVGTTYQKTDAAVEMKRINREQFWEQAKKEEELRKEEERKKALDERLRFEQERMEQERQEQEERERRYREREQQIEEHRRKQQTLEAEEAKRRLKEQSIFGDHRDEEEETHMKKSESEVEEAAAIIAQRPDNPREFFKQQERVASASAGSCDVPSPFNHRPGSHLDSHRRMAPTPIPTRSPSDSSTASTPVAEQIERALDEVTSSQPPPLPPPPPPAQETQEPSPILDSEETRAAAPQAWAGPMEEPPQAQAPPRGPGSPAEDLMFMESAEQAVLAAPVEPATADATEIHDAADTIETDTATADTTVANNVPPAATSLIDLWPGNGEGASTLQGEPRAPTPPSGTEVTLAEVPLLDEVAPEPLLPAGEGCATLLNFDELPEPPATFCDPEEVEGESLAAPQTPTLPSALEELEQEQEPEPHLLTNGETTQKEGTQASEGYFSQSQEEEFAQSEELCAKAPPPVFYNKPPEIDITCWDADPVPEEEEGFEGGD
binding [1]: binds
binding [2]: binds
binding [3]: binds

Results, then the molecule that gave them:

binding [1]: no binding
binding [2]: binds
binding [3]: binds
Molecule: CLASP1 (from UniProt Q7Z460 1-1538)

binding [1]: no binding
binding [2]: no binding
binding [3]: binds
Molecule: Cytoplasmic FMRP-Interacting Protein 1 (from UniProt Q7L576 1-1253)

binding [1]: no binding
binding [2]: no binding
binding [3]: no binding
Molecule: GAPDH (from UniProt P04406 1-335)

binding [4]: binds
binding [5]: binds
binding [6]: binds
Molecule: EYFP-tagged JAKMIP1 construct (from UniProt Q96N16-1 1-626)

binding [1]: binds
binding [2]: binds
binding [3]: binds
Molecule: HDAC6 (from UniProt Q9UBN7 1-1215)

binding [1]: binds
binding [2]: binds
binding [3]: binds
B1: HDAC8 (protein, UniProt Q9BY41 1-377)
chain: MEEPEEPADSGQSLVPVYIYSPEYVSMCDSLAKIPKRASMVHSLIEAYALHKQMRIVKPKVASMEEMATFHTDAYLQHLQKVSQEGDDDHPDSIEYGLGYDCPATEGIFDYAAAIGGATITAAQCLIDGMCKVAINWSGGWHHAKKDEASGFCYLNDAVLGILRLRRKFERILYVDLDLHHGDGVEDAFSFTSKVMTVSLHKFSPGFFPGTGDVSDVGLGKGRYYSVNVPIQDGIQDEKYYQICESVLKEVYQAFNPKAVVLQLGADTIAGDPMCSFNMTPVGIGKCLKYILQWQLATLILGGGGYNLANTARCWTYLTGVILGKTLSSEIPDHEFFTAYGPDYVLEITPSCRPDRNEPHRIQQILNYIKGNLKHVV

Source: paper doi:10.1101/2025.10.21.683757
